Article PMC2346476
These are yes or no findings as the source states them, for the method shown. Binding seen in cells or lysates may run through a third protein. Some binding calls cover weakened binding; strength is not graded here.

Protein sequences, listed by entry. Tags and fused reporters are not part of them. Residues count along the entry.
UniProt O94763, residues 26-535: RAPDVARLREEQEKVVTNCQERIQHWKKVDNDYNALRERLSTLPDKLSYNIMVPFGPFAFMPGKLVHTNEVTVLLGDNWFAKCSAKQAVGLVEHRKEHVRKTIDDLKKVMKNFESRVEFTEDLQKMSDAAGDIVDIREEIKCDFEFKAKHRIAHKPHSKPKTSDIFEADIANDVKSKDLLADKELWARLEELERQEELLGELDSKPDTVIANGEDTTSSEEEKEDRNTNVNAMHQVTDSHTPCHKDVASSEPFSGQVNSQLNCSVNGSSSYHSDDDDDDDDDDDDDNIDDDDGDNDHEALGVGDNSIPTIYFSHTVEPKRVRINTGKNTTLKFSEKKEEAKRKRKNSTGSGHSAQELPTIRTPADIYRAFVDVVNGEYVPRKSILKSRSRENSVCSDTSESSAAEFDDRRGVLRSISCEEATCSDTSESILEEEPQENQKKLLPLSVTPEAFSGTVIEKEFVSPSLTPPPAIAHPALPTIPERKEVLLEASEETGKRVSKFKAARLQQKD
UniProt P12982: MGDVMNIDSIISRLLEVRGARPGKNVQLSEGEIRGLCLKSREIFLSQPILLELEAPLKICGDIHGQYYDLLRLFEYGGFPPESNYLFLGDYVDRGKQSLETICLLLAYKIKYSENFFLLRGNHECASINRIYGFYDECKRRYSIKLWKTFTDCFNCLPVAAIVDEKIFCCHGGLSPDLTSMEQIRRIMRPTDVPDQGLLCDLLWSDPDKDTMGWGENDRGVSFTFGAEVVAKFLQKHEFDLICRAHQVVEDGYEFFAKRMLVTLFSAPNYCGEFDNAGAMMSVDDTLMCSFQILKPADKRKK
UniProt P62136: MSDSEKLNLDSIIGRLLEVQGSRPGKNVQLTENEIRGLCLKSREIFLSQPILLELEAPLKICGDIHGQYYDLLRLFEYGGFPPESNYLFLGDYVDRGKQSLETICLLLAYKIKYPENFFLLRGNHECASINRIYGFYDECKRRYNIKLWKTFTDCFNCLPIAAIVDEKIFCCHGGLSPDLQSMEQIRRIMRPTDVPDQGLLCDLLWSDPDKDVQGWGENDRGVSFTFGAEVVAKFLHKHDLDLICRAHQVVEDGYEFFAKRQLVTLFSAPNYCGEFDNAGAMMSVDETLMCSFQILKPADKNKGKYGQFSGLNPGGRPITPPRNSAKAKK
UniProt P62140: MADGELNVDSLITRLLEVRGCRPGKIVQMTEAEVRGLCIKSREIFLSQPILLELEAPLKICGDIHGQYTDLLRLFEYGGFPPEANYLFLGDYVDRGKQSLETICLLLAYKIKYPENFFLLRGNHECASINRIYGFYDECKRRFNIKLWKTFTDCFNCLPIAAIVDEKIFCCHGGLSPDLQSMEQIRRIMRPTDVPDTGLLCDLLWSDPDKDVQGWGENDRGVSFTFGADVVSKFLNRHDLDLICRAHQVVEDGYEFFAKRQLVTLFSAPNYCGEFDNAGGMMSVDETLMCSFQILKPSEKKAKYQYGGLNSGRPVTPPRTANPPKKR

T1: endogenous Drosophila Uri (Drosophila (endogenous in flies)) (UniProt Q9W148)
T1 sequence: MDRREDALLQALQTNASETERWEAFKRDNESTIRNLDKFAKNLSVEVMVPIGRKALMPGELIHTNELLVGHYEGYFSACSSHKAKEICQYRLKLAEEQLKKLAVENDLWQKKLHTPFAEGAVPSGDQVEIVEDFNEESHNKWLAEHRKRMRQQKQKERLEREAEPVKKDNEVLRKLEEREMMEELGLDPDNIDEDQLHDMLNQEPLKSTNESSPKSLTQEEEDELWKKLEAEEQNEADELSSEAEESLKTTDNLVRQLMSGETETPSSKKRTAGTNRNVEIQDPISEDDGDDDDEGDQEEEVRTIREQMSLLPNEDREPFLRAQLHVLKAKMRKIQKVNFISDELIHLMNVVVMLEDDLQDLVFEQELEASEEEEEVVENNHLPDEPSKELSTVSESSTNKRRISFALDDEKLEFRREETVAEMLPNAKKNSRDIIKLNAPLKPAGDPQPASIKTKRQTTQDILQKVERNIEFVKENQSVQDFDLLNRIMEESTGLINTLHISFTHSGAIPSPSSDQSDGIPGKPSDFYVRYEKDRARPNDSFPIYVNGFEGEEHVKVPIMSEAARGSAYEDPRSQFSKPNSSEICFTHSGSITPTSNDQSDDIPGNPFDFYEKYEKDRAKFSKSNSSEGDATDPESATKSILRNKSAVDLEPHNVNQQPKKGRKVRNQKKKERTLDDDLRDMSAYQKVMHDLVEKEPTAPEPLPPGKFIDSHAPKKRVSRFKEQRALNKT


Experiments:
[1] = target: T1, endogenous Drosophila Uri (Drosophila (endogenous in flies)); experiment: co-IP; fly lysates (arm-GAL4; UAS-HA-PP1c), immunoprecipitation with anti-Uri antibodies and Protein G Sepharose, immunoblot with anti-HA; IP buffer 25 mM HEPES pH 7.5, 100 mM NaCl, 1 mM EGTA, 0.1% Triton X-100, 10% glycerol
[2] = target: FLAG-tagged human URI/RMP (pNKFlag-RMP) (human) (UniProt O94763); experiment: co-IP; lysates of co-transfected COS7 cells, immunoprecipitation with anti-FLAG antibodies, immunoblot with anti-V5; 50 mM Tris-HCl, 0.5% Triton-X100, 150 mM NaCl
[3] = target: HA-tagged Drosophila PP1α87B expressed in flies (arm-GAL4; UAS-HA-PP1α87B) (Drosophila) (UniProt P12982); experiment: co-IP; reciprocal experiment: immunoprecipitation with anti-HA antibodies, immunoblot with anti-Uri antibodies; data not shown

binding [2] | Molecule | other results
 | HA-tagged Drosophila PP1α87B expressed in flies (arm-GAL4; UAS-HA-PP1α87B) (from UniProt P12982 1-302) (enzyme) | binding [1]: binds
binds | V5-tagged human PP1α (clone H-X70848M in pcDNA3.1/GS) (from UniProt P62136 1-330) (enzyme) | 
no binding | V5-tagged human PP1β (clone H-X80910M in pcDNA3.1/GS) (from UniProt P62140 1-327) (enzyme) | 
 | endogenous Drosophila Uri (protein, UniProt Q9W148 1-731) MDRREDALLQALQTNASETERWEAFKRDNESTIRNLDKFAKNLSVEVMVPIGRKALMPGELIHTNELLVGHYEGYFSACSSHKAKEICQYRLKLAEEQLKKLAVENDLWQKKLHTPFAEGAVPSGDQVEIVEDFNEESHNKWLAEHRKRMRQQKQKERLEREAEPVKKDNEVLRKLEEREMMEELGLDPDNIDEDQLHDMLNQEPLKSTNESSPKSLTQEEEDELWKKLEAEEQNEADELSSEAEESLKTTDNLVRQLMSGETETPSSKKRTAGTNRNVEIQDPISEDDGDDDDEGDQEEEVRTIREQMSLLPNEDREPFLRAQLHVLKAKMRKIQKVNFISDELIHLMNVVVMLEDDLQDLVFEQELEASEEEEEVVENNHLPDEPSKELSTVSESSTNKRRISFALDDEKLEFRREETVAEMLPNAKKNSRDIIKLNAPLKPAGDPQPASIKTKRQTTQDILQKVERNIEFVKENQSVQDFDLLNRIMEESTGLINTLHISFTHSGAIPSPSSDQSDGIPGKPSDFYVRYEKDRARPNDSFPIYVNGFEGEEHVKVPIMSEAARGSAYEDPRSQFSKPNSSEICFTHSGSITPTSNDQSDDIPGNPFDFYEKYEKDRAKFSKSNSSEGDATDPESATKSILRNKSAVDLEPHNVNQQPKKGRKVRNQKKKERTLDDDLRDMSAYQKVMHDLVEKEPTAPEPLPPGKFIDSHAPKKRVSRFKEQRALNKT | binding [3]: binds
